Laboratory results taken from publication PMC3572085.
These are yes or no findings as the source states them, for the method shown. In cells and extracts the contact can be indirect. Where a sequence is shown, tags or fusion partners need not be part of it.

Protein sequences, listed by entry. Tags and fused reporters are not part of them.
UniProt O54943: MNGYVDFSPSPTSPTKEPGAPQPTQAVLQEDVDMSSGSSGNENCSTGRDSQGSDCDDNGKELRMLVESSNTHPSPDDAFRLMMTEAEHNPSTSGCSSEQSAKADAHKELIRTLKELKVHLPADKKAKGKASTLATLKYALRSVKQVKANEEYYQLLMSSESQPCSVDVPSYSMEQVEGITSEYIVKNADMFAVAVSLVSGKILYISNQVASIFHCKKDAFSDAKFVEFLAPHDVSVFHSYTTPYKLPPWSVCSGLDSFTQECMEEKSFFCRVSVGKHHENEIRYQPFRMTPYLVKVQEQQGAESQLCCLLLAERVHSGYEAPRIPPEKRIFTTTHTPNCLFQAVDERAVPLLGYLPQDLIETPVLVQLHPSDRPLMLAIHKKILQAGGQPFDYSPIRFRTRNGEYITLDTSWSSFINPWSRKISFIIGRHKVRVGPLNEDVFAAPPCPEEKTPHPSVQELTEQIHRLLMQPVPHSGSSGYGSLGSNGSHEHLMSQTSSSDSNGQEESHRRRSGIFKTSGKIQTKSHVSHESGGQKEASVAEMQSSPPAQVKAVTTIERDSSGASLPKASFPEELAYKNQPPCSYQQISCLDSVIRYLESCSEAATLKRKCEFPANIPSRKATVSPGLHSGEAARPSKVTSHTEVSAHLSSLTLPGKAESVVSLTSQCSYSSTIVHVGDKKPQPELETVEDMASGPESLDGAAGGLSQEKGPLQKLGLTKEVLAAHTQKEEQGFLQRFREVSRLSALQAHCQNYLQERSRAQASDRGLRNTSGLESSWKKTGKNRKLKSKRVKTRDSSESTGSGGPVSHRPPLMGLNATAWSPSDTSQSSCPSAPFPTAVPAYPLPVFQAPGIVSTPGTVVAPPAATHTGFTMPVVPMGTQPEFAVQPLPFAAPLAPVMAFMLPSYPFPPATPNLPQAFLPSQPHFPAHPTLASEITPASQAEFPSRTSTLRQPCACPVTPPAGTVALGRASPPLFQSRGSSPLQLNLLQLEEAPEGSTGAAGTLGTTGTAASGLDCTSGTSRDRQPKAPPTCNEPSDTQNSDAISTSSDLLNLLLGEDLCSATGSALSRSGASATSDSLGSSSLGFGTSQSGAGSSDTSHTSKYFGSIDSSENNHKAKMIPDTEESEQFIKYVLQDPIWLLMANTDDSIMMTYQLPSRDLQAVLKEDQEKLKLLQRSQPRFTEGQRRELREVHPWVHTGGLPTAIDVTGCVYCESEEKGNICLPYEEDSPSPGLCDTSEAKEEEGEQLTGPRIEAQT

Legend:
[1] = biological target: T1, l-TIM-V5, C-terminally V5 tagged full length mouse TIMELESS, TIM(1–1198)-V5 (mouse) (UniProt Q9R1X4); assay: co-IP; COS7 co-expressing l-TIM-V5 and PER2-EGFP (with or without LMB) or PER2NESmut-GFP, or CRY2-V5 and PER2-GFP (positive control); IP anti-V5
T1 sequence: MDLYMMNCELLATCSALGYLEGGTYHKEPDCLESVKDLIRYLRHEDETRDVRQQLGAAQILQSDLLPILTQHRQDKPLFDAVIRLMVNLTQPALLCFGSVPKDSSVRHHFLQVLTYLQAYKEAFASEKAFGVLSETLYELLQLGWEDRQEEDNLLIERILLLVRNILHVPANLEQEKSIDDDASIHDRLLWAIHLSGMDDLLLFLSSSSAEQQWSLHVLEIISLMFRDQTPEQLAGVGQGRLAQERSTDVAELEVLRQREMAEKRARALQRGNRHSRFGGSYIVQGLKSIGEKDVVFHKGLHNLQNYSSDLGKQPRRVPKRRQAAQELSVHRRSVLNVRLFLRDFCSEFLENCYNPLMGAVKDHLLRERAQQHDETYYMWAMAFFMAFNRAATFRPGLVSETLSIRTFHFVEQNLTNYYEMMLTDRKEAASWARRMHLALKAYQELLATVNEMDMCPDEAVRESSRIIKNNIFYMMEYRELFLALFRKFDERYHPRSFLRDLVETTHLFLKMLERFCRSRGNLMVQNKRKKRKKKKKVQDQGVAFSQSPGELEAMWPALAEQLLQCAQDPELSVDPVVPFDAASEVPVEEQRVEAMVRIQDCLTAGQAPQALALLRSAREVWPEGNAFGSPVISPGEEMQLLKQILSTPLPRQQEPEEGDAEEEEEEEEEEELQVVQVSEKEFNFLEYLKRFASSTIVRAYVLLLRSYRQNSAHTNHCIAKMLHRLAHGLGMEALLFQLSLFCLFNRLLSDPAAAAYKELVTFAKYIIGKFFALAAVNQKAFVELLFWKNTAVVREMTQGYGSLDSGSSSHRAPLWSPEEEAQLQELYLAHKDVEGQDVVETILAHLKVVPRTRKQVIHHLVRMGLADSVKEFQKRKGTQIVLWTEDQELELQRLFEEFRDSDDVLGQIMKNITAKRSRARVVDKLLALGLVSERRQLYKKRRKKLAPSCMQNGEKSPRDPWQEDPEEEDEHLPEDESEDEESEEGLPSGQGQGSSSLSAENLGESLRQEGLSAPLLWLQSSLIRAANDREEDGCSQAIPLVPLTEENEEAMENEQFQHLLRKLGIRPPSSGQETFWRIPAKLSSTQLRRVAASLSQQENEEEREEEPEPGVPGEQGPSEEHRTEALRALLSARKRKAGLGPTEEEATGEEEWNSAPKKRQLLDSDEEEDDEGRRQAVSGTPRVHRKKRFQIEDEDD

[2] = biological target: T1, l-TIM-V5, C-terminally V5 tagged full length mouse TIMELESS, TIM(1–1198)-V5 (mouse); assay: co-IP; COS7 co-expressing all three of HA-CRY1 (WT or mutNLSc), l-TIM-V5 and PER2-GFP; IP of each with anti-HA, anti-V5 or anti-GFP, blots with the corresponding antibodies

- binding [1]: no binding
- binding [2]: no binding
Substance: PER2-GFP (from UniProt O54943 1-1257)
